In US12544355B2, “Use of monascinol in preparation of fat-reducing product” (TIANJIN UNIVERSITY OF SCIENCE AND TECHNOLOGY, priority 2019, dated 2026):
At least one compound was matched to its structure with a doubt left.

How the values were obtained:
[1] = test system: HepG2 cells modeled with oleic acid; assay: Oil red O staining of lipid drops in HepG2 cells modeled with oleic acid; format: cell-based; details: 2 μg/mL, inverted microscope ×400
Protocol: HepG2 cells in good growth condition were inoculated in a 6-well plate at 2*10^5 cells/mL, 1 mL per well. When cell adhesion rate reached 80%-90%, the medium was discarded. A blank group and a model group were set, where a complete medium was added to the blank group, 0.3 mmol/L oleic acid induction solution diluted with a complete medium was added to the model group, at 2 mL per well; after 24 hours of culture, the accumulation of lipid drops in the cells was observed by oil red 0 staining.
On day 1, blank control group: normally cultured HepG2 cells without treatment; oleic acid modeling group (the concentration of oleic acid is 0.3 mmol/L): normally culture HepG2 cells modeled with oleic acid without treatment; MC group: HepG2 cells modeled with oleic acid were administered with 2 μg/mL of Monascinol, i.e., MC; MS group: HepG2 cells modeled with oleic acid were administered with 2 μg/mL of Monascin (MS).
Morphological observation was further carried out by oil red 0 staining, and the results are shown in FIGS. 5A-5C (inverted microscope×400), FIG. 5A is a diagram of lipid accumulation in HepG2 cells of an oleic acid modeling group; FIG. 5B is a diagram of lipid accumulation in HepG2 cells of an MS group; FIG. 5C is a diagram of lipid accumulation in HepG2 cells of an MC group. […] This is consistent with the test result of TG.

pancrelipase = biological target: T1, pancrelipase (Sus scrofa, UniProt P00591); details: researches have reported; cited from earlier work
T1 construct: pancrelipase (Type II, derived from a porcine pancreas); from tissue; host or cells: porcine pancreas
T1 sequence (P00591 1-450): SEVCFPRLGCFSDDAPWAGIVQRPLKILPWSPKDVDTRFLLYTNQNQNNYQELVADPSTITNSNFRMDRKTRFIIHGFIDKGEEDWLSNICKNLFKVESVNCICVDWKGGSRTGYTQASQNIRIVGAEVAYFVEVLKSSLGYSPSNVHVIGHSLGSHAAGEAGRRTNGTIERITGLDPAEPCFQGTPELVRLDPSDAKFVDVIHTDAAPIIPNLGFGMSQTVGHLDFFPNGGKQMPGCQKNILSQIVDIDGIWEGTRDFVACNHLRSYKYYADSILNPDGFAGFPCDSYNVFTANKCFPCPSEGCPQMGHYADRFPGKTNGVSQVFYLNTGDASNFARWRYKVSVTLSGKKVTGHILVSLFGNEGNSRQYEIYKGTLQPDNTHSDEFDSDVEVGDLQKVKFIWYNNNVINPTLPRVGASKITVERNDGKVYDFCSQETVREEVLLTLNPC

Question: Which “lipid drops in the cells, oil red O staining vs oleic acid modeling group” value [1] does the source give for `C/C=C/C1=CC2=C(CO1)C(=O)[C@]1(C)OC(=O)[C@H](C(=O)CCCCC)[C@H]1C2` [MS, Monascin] here?
Answer: Its value is “reduce lipid drops in the cells and lighten color”.

Question: And the “type of inhibition on pancrelipase” value (pancrelipase)?
Answer: The value was “non-competitive inhibition”.

Question: Which “type of inhibition on pancrelipase” value (pancrelipase) does the source give for `C/C=C/C1=CC2=C(CO1)C(=O)[C@]1(C)OC(=O)[C@H](C(=O)CCCCCCC)[C@H]1C2` [AK, Ankaflavin] here?
Answer: The value was “non-competitive inhibition”.
